Measurements published in paper PMC10369948 (bioRxiv, 2023).

What follows are molecules tested on SRC1 PAS-B-Nurr1 AF1^28−51 fusion (assay: 1H-15N HSQC NMR titration). Settings: 1:10 protein:ligand, 0.2 mM protein, pH 6.8, 30 °C.
Format: binding

SMILES | Mean CSP ± Standard Deviation for All Peaks (ppm)
CCCCC[C@H](O)/C=C/[C@H]1[C@H](O)CC(=O)[C@H]1CCCCCCC(=O)O [8-iso PGE1] | 0.013 ± 0.010 ppm
CCCCC[C@H](O)/C=C/[C@H]1[C@H](O)CC(=O)[C@@H]1C/C=C\CCCC(=O)O [PGE2] | 0.009 ± 0.007 ppm
CCCCC[C@H](O)/C=C/[C@H]1C=CC(=O)[C@@H]1CCCCCCC(=O)O [PGA1] | 0.014 ± 0.019 ppm
CCCCC[C@H](O)/C=C/[C@H]1C(=O)C[C@H](O)[C@@H]1CCCCCCC(=O)O [PGD1] | 0.008 ± 0.004 ppm
CCCCC[C@H](O)/C=C/C1=C(CCCCCCC(=O)O)C(=O)CC1 [PGB1] | 0.026 ± 0.026 ppm
